# Laboratory results reported in US20240252544A1, “Method for Producing Retinal Tissue” (RIKEN, priority 2021, published 2024).
# Tests used:
# [1] = tested on: Human ES cells genetically engineered so as to have Rx::Venus reporter gene (derived from KhES-1 strain); test: Immunostaining of frozen sections of aggregated masses, confocal fluorescence microscope; format: cell-based; conditions: 1 μM PD407824 with 1.5 nM BMP4
# Description: The aggregated masses on Day 25 from initiation of the suspension culture were fixed with 4% PFA, subjected to replacement with 20% sucrose, and then frozen and sectioned. These frozen sections were subjected to immunostaining with DAPI, an anti-CHX10 antibody (trade name: Anti CHX10 Antibody, manufactured by EX alpha), an anti-MITF antibody (manufactured by EX alpha), an anti-collagen IV (manufactured by Abcam plc.) and an anti-Zo-1 antibody (Invitrogen). As necessary, antigen activation treatment (manufactured by Thermo Fisher Scientific) was performed with a microwave. […] In addition, in the outer layer of RPE cells, a Zo-1-positive apical surface was formed in the outermost surface, and a collagen-positive basal surface was formed in the inside thereof. […] Moreover, many characteristic ciliary marginal zone (CMZ) structures (places indicated by “[” in FIG. 7, about 3 to 10 per aggregate) in a boundary part between the layer of MITF-positive RPE and the layer of a Chx10-positive neural retina were found through observation (FIG. 7). Aggregated masses produced as in Example 1 by culturing under conditions involving addition of 1 μM PD407824 in addition to 1.5 nM BMP4 for 60 days from initiation of the suspension culture were fixed with 4% PFA, subjected to replacement with 20% sucrose, and then frozen and sectioned. These frozen sections were subjected to antigen activation treatment with a microwave, followed by immunostaining with DAPI, an anti-CHX10 antibody (trade name: Anti CHX10 Antibody, manufactured by EX alpha) and an anti-CRX antibody (manufactured by Takara Bio Inc.).
# [2] = tested on: ES cells; conditions: PD407824 and BMP in combination; cited from earlier work
# [3] = tested on: Human ES cells genetically engineered so as to have Rx::Venus reporter gene (derived from KhES-1 strain); test: Differentiation of human ES cell aggregates into retinal tissue in suspension culture (SFEBq), microscope observation of aggregated masses; format: cell-based; conditions: for proportion of cell aggregates produced having an almost truly spherical shape: PD407824 in combination with 0.15 nM BMP4
# Description: Human ES cells genetically engineered so as to have Rx::Venus reporter gene (derived from KhES-1 strain (Non Patent Literature 3)) were cultured in the absence of a feeder cell (under feeder-free conditions) in accordance with the method described in “Scientific Reports, 4, 3594 (2014)”. As a culture medium for use in culturing in the absence of a feeder cell (feeder-free medium), StemFit medium (trade name: AK03N, manufactured by Ajinomoto Co., Inc.) was used, and as a scaffold as an alternative to feeder cells, Laminin511-E8 (trade name, manufactured by Nippi, Inc.) was used.
# Specific operation of maintenance culture for human ES cells was performed as follows: First, human ES cells that reached sub-confluency (state where about 60% of the culture area was covered by cells) were washed with PBS and separated into single cells by use of TrypLE Select (trade name, manufactured by Life Technologies). Then, the separated human ES single cells were seeded in plastic culture dishes coated with Laminin 511-E8 and cultured under feeder-free conditions in StemFit medium in the presence of Y-27632 (ROCK inhibitor, 10 μM). When 6-well plates (for cell culture, culture area: 9.4 cm^2, manufactured by AGC TECHNO GLASS., LTD) were used as the plastic culture dishes, the number of separated human ES single cells to be seeded was specified as 0.4 to 1.2×10^4 cells per well. One day after seeding, the medium was exchanged with StemFit medium not containing Y-27632. Thereafter, the medium was exchanged with Y-27632-free StemFit medium once every 1 to 2 days. Thereafter, the cells were cultured under feeder-free conditions until 1 day before reaching sub-confluency. The human ES cells the 1 day before the sub-confluency were cultured for 1 day (preconditioning treatment) under feeder-free conditions in the presence of SB431542 (TGFβ signaling pathway inhibitor, 5 μM) and SAG (Shh signaling pathway agonist, 300 nM).
# The human ES cells were washed with PBS, then treated for cell dispersions using TrypLE Select, and further separated into single cells by pipetting. Thereafter, the separated human ES single cells were suspended in 100 μL of a serum-free medium such that the density of cells per well of a non-cell adhesive 96-well culture plate (trade name: PrimeSurface, 96-well V-bottom plate, manufactured by Sumitomo Bakelite Co., Ltd.) was 1.2×10^4 cells, and subjected to suspension culture in the conditions of 37° C.and 5% CO2. The serum-free medium (gfCDM+KSR) used herein is a serum-free medium prepared by adding 10% KSR and 450 μM 1-monothioglycerol and 1× Chemically defined lipid concentrate to a mixture of culture fluids containing F-12 medium and IMDM medium in a ratio of 1:1.
# At the initiation time of the suspension culture (Day 0 from initiation of the suspension culture), Y-27632 (ROCK inhibitor, final concentration: 10 μM) were added to the serum-free medium. On Day 3 from initiation of the suspension culture, 50 L of a culture medium not containing Y-27632 and containing human recombinant BMP4 (trade name: Recombinant Human BMP-4, manufactured by R&D) was added in such a manner that the final concentration of the exogeneous human recombinant BMP4 reached 0.15 nM or 1.5 nM. In addition, PD407824 (Tocris Bioscience) was added simultaneously with BMP4 at a final concentration of 1 μM.
# Further, the aggregated masses (cell aggregates) of Day 14 from initiation of the suspension culture were transferred to a 90-mm low adhesive plate (manufactured by Sumitomo Bakelite Co., Ltd.) and cultured for 3 days in the conditions of 37° C. and 5% CO2 in a serum-free medium (DMEM/F12 medium supplemented with 1% N2 Supplement) containing a Wnt signaling pathway agonist (CHIR99021, 3 M) and a FGF signaling pathway inhibitor (SU5402, 5 μM). The aforementioned method was performed also in subsequent Examples in the same manner, unless otherwise specified.
# [4] = 1 μM PD407824 with 1.5 nM BMP4 added Day 3, Day 21, FIG. 5
# [5] = PD407824 used in combination (1 μM PD407824 with 0.15 nM BMP4)
structure (smiles),measurement,setting,value
O=C1NC(=O)c2c1c(-c1ccccc1)cc1[nH]c3ccc(O)cc3c21 [PD407824],"Chx10 staining (neural retinal progenitor cells), localisation","[1]; Day 25, FIG. 6",Chx 10-positive neural retinal progenitor cells were contained in the inner cell layer
same,"MITF staining (RPE cells), localisation","[1]; Day 25, FIG. 6",MITF-positive RPE cells were contained in the outermost cell layer of each aggregated mass
same,"apical-basal polarity (Zo-1, collagen IV staining)","[1]; Day 25, FIG. 6",an aggregated mass with apical-and-basal polarity was formed
same,"Crx staining (photoreceptor cells), localisation","[1]; Day 60, FIG. 9",Crx-positive photoreceptor cells were localized in the side close to RPE cells in the inner layer structure
same,"RPE cells and Chx10-positive retinal progenitor cells, localisation","[1]; Day 60, FIG. 9",RPE cells having black pigments were contained in the outermost cell layer of an aggregated mass and Chx10-positive retinal progenitor cells inside of which a layer structure was formed were contained
same,effect on differentiation of ES cells into mesodermal cells,[2],enhance the differentiation of ES cells into mesodermal cells
same,production efficiency for Rx::Venus-positive NR,"[3]; 1 μM PD407824 in combination, 0.15 nM BMP4 compared with 1.5 nM BMP4, Day 17",higher production efficiency for Rx::Venus-positive NR was obtained when 0.15 nM BMP4 was added than when 1.5 nM BMP4 was added
same,production of retinal tissue,"[3]; 1 μM PD407824 with 0.15 nM BMP4 (about 1/10 of normal) added Day 3, observed Day 17, FIG. 1",retinal tissue can be produced
same,Rx::Venus-negative (non-target) cell masses,"[3]; 1 μM PD407824 with 0.15 nM BMP4 added Day 3, Day 15 or 36, FIGS. 2 to 4",Rx::Venus-negative masses were significantly reduced to result in high efficiency of differentiation into Rx::Venus-positive NR
same,structure of the aggregate produced,"[3]; 1 μM PD407824 with 1.5 nM BMP4, Day 17, FIG. 1",a sphere-like cell aggregate comprising a multilayer structure in which a layer of retinal pigment epithelial (RPE) cells was localized in the outside and a layer of neural retinal tissue (NR) was localized in the inside was produced
same,shape of the aggregated mass,[3]; [4],"favorable shape (a shape with a plurality of overlapping true spheres (e.g., cloverleaf))"
same,structure of the aggregate produced,[3]; [4],a sphere-like cell aggregate comprising a multilayer structure in which a layer of retinal pigment epithelial (RPE) cells was localized in the outside and a layer of neural retinal tissue (NR) was localized in the inside was produced
same,formation of Rx::Venus-positive neural retina,"[3]; 1 μM PD with 0.15 nM BMP4 added Day 3, Day 9, FIG. 8",an Rx::Venus-positive neural retina was formed through differentiation in the whole region of an aggregated mass
same,structure of the aggregate produced,"[3]; 1 μM or 3 μM PD407824 with 0.5 nM or 1.5 nM BMP4 added Day 3, Day 9, FIG. 8",a sphere-like cell aggregate comprising a multilayer structure of an outer layer of RPE cells and an inner layer of neural retinal tissue including many CMZs and having polarity was produced
same,proportion of cell aggregates produced having an almost truly spherical shape,[3]; 95/96,about 99%
same,proportion of cell aggregates produced having an almost truly spherical shape,[3]; case with failure in aggregated mass formation excluded,100%
same,"wells with a cell aggregate having an almost truly spherical shape, among 96 wells",[3]; [5],95 wells
same,"wells with a cell aggregate with failure in aggregated mass formation, among 96 wells",[3]; [5],one
